Assay results taken from publication PMC10190619.
Results are given in words; binding and its absence hold for the method and conditions named. Binding seen in cells or lysates may run through a third protein. Binding can be weak; no strength is given.

By UniProt entry, the sequences of proteins in these tests, tags left out. Where a name states a change or a piece, a line headed by the entry shows the natural chain unless it says otherwise.
UniProt Q16531: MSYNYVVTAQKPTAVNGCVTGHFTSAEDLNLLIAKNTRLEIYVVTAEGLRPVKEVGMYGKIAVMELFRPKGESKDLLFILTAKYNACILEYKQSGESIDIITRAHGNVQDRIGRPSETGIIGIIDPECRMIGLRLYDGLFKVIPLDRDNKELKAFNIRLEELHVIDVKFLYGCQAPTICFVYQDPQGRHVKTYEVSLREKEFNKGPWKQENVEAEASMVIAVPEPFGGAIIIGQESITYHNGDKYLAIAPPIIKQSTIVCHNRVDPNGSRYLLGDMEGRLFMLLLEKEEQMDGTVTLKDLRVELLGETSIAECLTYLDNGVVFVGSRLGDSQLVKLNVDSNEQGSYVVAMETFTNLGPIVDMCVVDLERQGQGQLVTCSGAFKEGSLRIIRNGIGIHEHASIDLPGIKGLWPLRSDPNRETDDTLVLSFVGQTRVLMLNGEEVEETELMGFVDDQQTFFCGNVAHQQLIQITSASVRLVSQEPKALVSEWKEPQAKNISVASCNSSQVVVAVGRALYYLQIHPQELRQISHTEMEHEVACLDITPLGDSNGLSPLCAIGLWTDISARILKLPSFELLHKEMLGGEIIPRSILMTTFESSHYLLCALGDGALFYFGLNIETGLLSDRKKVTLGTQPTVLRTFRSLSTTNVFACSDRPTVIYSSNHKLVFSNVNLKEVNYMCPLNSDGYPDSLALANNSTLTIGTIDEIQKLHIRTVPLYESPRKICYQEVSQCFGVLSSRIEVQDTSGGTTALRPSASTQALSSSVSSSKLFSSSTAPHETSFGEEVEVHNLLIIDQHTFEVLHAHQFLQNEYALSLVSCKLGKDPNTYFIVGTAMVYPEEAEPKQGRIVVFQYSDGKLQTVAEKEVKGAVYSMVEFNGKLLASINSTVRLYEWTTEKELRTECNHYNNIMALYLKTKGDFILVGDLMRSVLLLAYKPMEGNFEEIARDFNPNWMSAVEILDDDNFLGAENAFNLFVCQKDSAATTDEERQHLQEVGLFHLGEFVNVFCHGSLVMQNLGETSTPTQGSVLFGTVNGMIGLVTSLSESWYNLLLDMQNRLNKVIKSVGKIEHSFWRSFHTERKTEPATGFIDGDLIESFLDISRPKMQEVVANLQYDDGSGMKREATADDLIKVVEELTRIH
UniProt P09874: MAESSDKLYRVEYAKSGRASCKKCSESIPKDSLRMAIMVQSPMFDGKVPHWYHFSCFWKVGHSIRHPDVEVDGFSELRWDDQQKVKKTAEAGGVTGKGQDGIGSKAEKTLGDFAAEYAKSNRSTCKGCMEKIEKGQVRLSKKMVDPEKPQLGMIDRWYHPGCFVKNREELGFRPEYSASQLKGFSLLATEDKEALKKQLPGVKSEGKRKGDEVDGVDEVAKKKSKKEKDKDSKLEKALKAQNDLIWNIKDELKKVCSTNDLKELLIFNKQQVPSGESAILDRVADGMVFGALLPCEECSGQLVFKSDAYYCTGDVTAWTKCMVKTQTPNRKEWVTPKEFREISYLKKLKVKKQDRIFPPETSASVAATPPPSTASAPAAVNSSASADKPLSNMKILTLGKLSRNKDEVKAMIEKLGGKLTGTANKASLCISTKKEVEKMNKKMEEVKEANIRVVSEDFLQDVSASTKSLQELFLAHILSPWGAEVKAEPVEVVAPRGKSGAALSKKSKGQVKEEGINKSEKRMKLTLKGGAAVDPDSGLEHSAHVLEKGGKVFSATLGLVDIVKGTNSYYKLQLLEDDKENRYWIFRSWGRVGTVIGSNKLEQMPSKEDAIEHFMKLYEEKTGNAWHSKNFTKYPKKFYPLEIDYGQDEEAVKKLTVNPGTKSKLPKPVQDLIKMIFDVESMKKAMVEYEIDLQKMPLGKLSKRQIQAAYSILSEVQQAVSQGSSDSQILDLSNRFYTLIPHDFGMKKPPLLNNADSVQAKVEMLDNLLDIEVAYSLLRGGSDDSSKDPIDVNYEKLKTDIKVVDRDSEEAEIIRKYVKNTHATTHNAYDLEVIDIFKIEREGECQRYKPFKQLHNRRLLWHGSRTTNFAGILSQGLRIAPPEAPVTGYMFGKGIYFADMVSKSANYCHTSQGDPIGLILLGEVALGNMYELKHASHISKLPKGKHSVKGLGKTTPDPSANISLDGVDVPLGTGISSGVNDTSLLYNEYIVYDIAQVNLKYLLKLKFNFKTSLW
UniProt Q96LA8: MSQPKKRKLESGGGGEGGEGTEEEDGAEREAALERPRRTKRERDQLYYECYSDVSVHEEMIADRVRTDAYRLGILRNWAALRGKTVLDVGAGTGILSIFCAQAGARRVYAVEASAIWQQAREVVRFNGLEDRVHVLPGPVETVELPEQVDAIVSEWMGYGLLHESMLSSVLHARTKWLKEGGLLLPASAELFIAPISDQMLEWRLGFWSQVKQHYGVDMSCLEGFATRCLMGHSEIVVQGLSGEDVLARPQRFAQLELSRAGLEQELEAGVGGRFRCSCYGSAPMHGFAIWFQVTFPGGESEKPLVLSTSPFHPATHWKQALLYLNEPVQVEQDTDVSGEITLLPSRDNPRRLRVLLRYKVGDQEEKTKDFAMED

Columns and labels:
[1] = target: GST-fused DDB1 propeller domain BPC (UniProt Q16531); assay: pull-down; GST fusion protein purified on glutathione-Sepharose 4B beads mixed with in vitro transcribed/translated product (rabbit reticulocyte lysate) in binding buffer; beads washed, Western blot; only the target purified
[2] = target: GST-fused DDB1 propeller domain BPA (UniProt Q16531); assay: as above

Row | Substance | binding [1] | binding [2]
1 | in vitro transcribed/translated PARP1 (from UniProt P09874 1-1014) (enzyme) | binds | 
2 | in vitro transcribed/translated PRMT6 (from UniProt Q96LA8 1-375) (enzyme) |  | binds
